Test results: patent publication US20180051064A1 (AJOU UNIVERSITY INDUSTRY ACADEMIC COOPERATION FOUNDATION, published 2018)
These are yes or no findings as the source states them, for the method shown. Binding can be weak; no strength is given. Sequences can lack the tags named with a protein.

Amino acid sequences for entries named in this document (tags omitted). A change or cut given only in a name is not applied to a line headed by its entry.
UniProt O14786: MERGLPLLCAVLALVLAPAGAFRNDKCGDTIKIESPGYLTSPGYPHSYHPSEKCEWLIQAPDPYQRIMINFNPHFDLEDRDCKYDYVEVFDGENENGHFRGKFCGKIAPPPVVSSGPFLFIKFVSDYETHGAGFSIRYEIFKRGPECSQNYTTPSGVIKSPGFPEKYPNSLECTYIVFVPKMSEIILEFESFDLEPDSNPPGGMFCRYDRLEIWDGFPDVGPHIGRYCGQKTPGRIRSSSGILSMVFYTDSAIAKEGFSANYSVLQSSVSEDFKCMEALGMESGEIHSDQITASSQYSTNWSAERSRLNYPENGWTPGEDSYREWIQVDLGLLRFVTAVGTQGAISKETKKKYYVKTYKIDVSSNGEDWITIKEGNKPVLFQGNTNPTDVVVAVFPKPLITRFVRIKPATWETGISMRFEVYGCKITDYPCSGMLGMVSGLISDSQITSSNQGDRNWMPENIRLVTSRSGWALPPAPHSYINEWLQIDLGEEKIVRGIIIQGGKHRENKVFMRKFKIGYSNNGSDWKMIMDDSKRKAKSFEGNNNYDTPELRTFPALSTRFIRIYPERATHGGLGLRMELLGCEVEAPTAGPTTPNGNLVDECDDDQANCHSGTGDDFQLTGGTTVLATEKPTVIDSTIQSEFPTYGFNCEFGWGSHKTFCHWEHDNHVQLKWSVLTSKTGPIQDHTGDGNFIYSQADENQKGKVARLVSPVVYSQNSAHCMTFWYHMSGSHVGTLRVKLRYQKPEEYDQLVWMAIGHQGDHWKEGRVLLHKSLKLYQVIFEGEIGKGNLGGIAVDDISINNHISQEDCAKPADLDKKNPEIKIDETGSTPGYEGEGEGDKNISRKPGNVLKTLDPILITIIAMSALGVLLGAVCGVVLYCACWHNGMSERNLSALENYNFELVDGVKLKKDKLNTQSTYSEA

Legend:
[1] = target: T1, NRP1-b1b2 (273-586) protein (UniProt O14786 273-586); assay: ELISA, biotinylated analyte on immobilised NRP1-b1b2, absorbance at 405 nm [B]
T1 construct: range 273-586; Prepared according to Appleton et al. 2007; Biotinylated (Sulfo-NHS-LC-biotin) for the yeast display FACS; unlabelled in ELISA and SPR; also called neuropilin-1 b1b2 protein; biotinylated NRP1-b1b2

[2] = target: T1, NRP1-b1b2 (273-586) protein; assay: competitive ELISA on NRP1-b1b2; TPP11 peptide varied, blocked ligand VEGF165 [5 nM], relative binding (%) [B]
[3] = target: T1, NRP1-b1b2 (273-586) protein; assay: competitive ELISA on NRP1-b1b2; TPP11 peptide varied, blocked ligand RPARPAR [10 µM], relative binding (%) [B]
[4] = target: T1, NRP1-b1b2 (273-586) protein; assay: competitive binding ELISA on NRP1-b1b2

Measured: binding

HTPGNSKPTRTPRR [synthetic peptide TPP11 not fused to Fc]
binds: all assays above
